In this test the target is full-length REV3L tagged with YFP (human) (UniProt O60673). Description: affinity purification with mass spectrometry; same anti-GFP immunoprecipitates of REV3L-YFP or YFP only from weakly cross-linked HEK293T cells; in-gel tryptic digestion, Orbitrap Elite; three biological replicas compared to the YFP control.

Amino acid sequences for entries named in this document (tags omitted).
UniProt O60673: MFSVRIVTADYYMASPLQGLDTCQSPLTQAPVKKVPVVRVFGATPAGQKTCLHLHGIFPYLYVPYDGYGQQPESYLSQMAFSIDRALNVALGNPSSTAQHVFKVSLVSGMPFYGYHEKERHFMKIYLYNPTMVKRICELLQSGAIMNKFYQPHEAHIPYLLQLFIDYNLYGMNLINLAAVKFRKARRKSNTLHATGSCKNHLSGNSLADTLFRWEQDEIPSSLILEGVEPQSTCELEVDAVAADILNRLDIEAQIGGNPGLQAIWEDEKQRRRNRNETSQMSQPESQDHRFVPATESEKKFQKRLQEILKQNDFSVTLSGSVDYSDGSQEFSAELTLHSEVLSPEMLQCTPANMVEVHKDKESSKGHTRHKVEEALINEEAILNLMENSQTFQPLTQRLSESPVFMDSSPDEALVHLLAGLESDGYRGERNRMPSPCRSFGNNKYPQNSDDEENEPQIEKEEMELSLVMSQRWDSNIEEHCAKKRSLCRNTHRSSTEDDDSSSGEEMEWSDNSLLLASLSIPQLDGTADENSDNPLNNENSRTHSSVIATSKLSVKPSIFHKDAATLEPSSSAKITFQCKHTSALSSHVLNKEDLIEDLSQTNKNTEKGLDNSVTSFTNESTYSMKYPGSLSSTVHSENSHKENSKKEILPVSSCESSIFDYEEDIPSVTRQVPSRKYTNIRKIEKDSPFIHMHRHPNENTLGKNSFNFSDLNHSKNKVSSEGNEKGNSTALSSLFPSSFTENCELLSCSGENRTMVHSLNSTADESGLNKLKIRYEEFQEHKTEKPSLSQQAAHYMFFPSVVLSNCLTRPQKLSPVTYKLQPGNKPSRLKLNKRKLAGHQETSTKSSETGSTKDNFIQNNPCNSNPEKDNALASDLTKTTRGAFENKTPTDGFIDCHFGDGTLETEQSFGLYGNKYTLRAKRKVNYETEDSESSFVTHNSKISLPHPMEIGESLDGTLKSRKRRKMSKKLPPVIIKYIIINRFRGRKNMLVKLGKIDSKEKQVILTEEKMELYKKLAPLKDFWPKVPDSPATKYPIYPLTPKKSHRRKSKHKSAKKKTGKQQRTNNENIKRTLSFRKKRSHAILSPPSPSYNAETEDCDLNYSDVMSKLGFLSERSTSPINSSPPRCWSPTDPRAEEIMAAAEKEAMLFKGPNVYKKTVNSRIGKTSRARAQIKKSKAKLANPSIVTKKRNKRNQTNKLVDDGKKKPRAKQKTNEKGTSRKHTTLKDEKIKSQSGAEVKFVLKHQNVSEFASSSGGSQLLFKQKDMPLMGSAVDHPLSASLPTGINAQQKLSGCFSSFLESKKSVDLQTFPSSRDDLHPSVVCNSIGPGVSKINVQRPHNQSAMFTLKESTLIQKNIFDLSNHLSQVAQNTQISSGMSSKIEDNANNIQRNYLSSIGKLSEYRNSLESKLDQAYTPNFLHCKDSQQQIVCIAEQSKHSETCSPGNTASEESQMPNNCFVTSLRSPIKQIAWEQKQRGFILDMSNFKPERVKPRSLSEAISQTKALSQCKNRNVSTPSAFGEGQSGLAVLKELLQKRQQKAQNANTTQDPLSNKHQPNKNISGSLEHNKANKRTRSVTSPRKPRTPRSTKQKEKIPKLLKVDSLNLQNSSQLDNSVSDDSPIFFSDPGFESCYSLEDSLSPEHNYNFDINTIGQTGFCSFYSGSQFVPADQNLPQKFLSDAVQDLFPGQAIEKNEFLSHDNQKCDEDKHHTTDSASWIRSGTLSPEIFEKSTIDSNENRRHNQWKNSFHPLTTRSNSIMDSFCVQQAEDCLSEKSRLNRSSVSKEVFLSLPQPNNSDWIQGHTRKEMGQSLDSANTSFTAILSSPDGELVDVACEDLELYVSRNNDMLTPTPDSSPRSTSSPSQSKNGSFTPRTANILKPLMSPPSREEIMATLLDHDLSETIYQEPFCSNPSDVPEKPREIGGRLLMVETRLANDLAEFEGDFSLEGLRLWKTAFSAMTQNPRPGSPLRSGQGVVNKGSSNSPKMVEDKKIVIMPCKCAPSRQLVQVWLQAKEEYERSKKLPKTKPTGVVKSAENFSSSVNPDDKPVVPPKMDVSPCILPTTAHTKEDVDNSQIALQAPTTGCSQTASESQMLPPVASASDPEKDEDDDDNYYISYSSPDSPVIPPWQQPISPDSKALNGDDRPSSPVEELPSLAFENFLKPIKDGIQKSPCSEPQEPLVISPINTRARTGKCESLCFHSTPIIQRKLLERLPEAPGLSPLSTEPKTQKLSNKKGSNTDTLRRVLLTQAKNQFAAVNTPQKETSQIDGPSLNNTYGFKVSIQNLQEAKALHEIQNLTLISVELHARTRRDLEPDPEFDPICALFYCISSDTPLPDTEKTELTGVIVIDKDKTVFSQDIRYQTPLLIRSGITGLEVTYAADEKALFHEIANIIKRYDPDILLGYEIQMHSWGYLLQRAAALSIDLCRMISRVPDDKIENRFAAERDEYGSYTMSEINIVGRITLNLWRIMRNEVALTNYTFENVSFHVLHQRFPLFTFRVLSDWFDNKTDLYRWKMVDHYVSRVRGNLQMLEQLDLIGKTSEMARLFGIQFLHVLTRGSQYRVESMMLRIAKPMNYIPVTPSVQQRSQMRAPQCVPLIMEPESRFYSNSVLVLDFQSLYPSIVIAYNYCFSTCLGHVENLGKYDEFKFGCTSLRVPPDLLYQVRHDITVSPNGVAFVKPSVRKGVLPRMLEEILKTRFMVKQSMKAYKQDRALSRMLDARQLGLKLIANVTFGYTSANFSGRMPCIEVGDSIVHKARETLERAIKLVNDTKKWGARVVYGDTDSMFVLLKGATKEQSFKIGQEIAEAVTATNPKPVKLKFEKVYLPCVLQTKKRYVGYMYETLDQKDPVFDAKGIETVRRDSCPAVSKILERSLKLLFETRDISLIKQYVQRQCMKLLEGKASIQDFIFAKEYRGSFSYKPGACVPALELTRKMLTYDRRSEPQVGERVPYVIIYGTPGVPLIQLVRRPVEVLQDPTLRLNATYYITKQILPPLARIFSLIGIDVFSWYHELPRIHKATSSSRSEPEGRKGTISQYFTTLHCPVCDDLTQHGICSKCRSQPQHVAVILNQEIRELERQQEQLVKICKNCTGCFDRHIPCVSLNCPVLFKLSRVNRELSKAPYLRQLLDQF

Results on 1 molecule are retold here after publication PMC6337749.

No constants are given. Whether binding was seen depends on the method and setting. Binding seen in cells or lysates may run through a third protein. These calls come from enrichment with a bait or labelling near it, and not all partners need be listed.

B1: POLD3 (protein, UniProt Q15054 1-466)
chain: MADQLYLENIDEFVTDQNKIVTYKWLSYTLGVHVNQAKQMLYDYVERKRKENSGAQLHVTYLVSGSLIQNGHSCHKVAVVREDKLEAVKSKLAVTASIHVYSIQKAMLKDSGPLFNTDYDILKSNLQNCSKFSAIQCAAAVPRAPAESSSSSKKFEQSHLHMSSETQANNELTTNGHGPPASKQVSQQPKGIMGMFASKAAAKTQETNKETKTEAKEVTNASAAGNKAPGKGNMMSNFFGKAAMNKFKVNLDSEQAVKEEKIVEQPTVSVTEPKLATPAGLKKSSKKAEPVKVLQKEKKRGKRVALSDDETKETENMRKKRRRIKLPESDSSEDEVFPDSPGAYEAESPSPPPPPSPPLEPVPKTEPEPPSVKSSSGENKRKRKRVLKSKTYLDGEGCIVTEKVYESESCTDSEEELNMKTSSVHRPPAMTVKKEPREERKGPKKGTAALGKANRQVSITGFFQRK
B1: the binding entry is “binds”.
